Reference: PubChem BioAssay AID743454 (Peter MacCallum Cancer Centre, 2014)
The whole screen tested about 18,000 reagents; shown is a part drawn at random. Over the whole deposit, 450 (2.5%) are marked active. 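Single biological run; no consistent viability z cut-off exists, so the class columns, not z-scores, define the calls.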

Assay: 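Genes whose loss kills vorinostat-resistant colon cancer cells under vorinostat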 (primary screen)
System: human HCT116-VR colon cancer cells, selected for vorinostat resistance
Reagents: siRNA pool against human genes, 40 nM siRNA pool
Time to read-out: vorinostat for 24 h, read-out about 72 h after transfection
Challenge: vorinostat at 2.5 µM final
Measured: 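Cell viability by CellTiter-Fluor and caspase 3/7 activity by luminescence, each scaled to mock wells per plate, duplicates averaged, then robust z-scored over all plates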
Scale: viability robust z-score: higher = more viable cells than screen typical; caspase robust z-score: higher = more caspase 3/7 activity than screen typical
Call rule: 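a knock-down is a hit when classed RV1 or RV2 for lowered viability, or CA1 or CA2 for caspase activation; those lethal without drug were dropped; hits were retested singly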

no.	gene	viability hit class	caspase hit class	viability robust z-score	caspase robust z-score	call
1	XKRX (XK related X-linked)	no change	no change	0.76	-0.24	inactive
2	LZTS3 (leucine zipper tumor suppressor family member 3)	no change	no change	-0.43	2.6	inactive
3	ZNF280D (zinc finger protein 280D)	no change	no change	-0.14	-0.74	inactive
4	CPZ (carboxypeptidase Z)	no change	no change	-1.21	0.23	inactive
5	ATP6V1C1 (ATPase H+ transporting V1 subunit C1)	no change	no change	-2.79	0.89	inactive
6	MAN2C1 (mannosidase alpha class 2C member 1)	no change	no change	0.96	-0.78	inactive
7	NUFIP1 (nuclear FMR1 interacting protein 1)	no change	no change	0.58	-0.42	inactive
8	PDF (peptide deformylase, mitochondrial)	no change	no change	1.52	-0.62	inactive
9	ZNF284 (zinc finger protein 284)	no change	no change	0.42	0.3	inactive
10	SS18L1 (SS18L1 subunit of BAF chromatin remodeling complex)	no change	no change	0.13	1.47	inactive
11	CENPX (centromere protein X)	no change	no change	-0.66	0.18	inactive
12	RBP5 (retinol binding protein 5)	no change	no change	1.75	-0.29	inactive
13	LDHC (lactate dehydrogenase C)	no change	no change	-0.55	-0.49	inactive
14	TYW5 (tRNA-yW synthesizing protein 5)	no change	no change	0.34	-0.05	inactive
15	CHMP3 (charged multivesicular body protein 3)	no change	no change	0.42	0.17	inactive
16	HPS6 (HPS6 biogenesis of lysosomal organelles complex 2 subunit 3)	no change	no change	0.68	-1.12	inactive
17	PAK3 (p21 (RAC1) activated kinase 3)	no change	no change	-0.22	-0.45	inactive
18	DDX60 (DExD/H-box helicase 60)	no change	no change	1.05	-0.46	inactive
19	IKZF5 (IKAROS family zinc finger 5)	no change	no change	0.04	1.43	inactive
20	NOA1 (nitric oxide associated 1)	no change	no change	-0.05	0.1	inactive
21	MDGA1 (MAM domain containing glycosylphosphatidylinositol anchor 1)	no change	no change	-1.35	-0.85	inactive
22	NAGK (N-acetylglucosamine kinase)	no change	no change	-1.77	0.68	inactive
23	TMEM119 (transmembrane protein 119)	no change	no change	2.05	-0.2	inactive
24	ELOVL6 (ELOVL fatty acid elongase 6)	no change	no change	-0.08	-0.34	inactive
25	SAMD3 (sterile alpha motif domain containing 3)	no change	no change	-1.01	-0.65	inactive
26	H2BC4 (H2B clustered histone 4)	no change	no change	0.16	0.2	inactive
27	ATXN7 (ataxin 7)	no change	no change	-0.16	0.3	inactive
28	CD101 (CD101 molecule)	no change	no change	1.74	3.75	inactive
29	TBX5 (T-box transcription factor 5)	no change	no change	0.37	-0.74	inactive
30	FNDC8 (fibronectin type III domain containing 8)	no change	no change	-0.08	4.39	inactive
31	PXT1 (peroxisomal testis enriched protein 1)	no change	no change	-0.11	-0.12	inactive
32	PRRG4 (proline rich and Gla domain 4)	no change	no change	0.46	0.28	inactive
33	SHISA3 (shisa family member 3)	no change	no change	-0.68	-0.38	inactive
34	CTNNA3 (catenin alpha 3)	no change	no change	1.18	0.12	inactive
35	PRG4 (proteoglycan 4)	no change	no change	1.73	-0.45	inactive
36	AP3B2 (adaptor related protein complex 3 subunit beta 2)	no change	no change	-0.38	1.39	inactive
37	CDC26 (cell division cycle 26)	no change	no change	-1.5	1.79	inactive
38	IL31 (interleukin 31)	no change	no change	1.36	2.79	inactive
39	SUSD3 (sushi domain containing 3)	no change	no change	-0.59	-1.04	inactive
40	EVC2 (EvC ciliary complex subunit 2)	no change	no change	-0.5	1.07	inactive
41	TEK (TEK receptor tyrosine kinase)	no change	no change	1.23	-0.58	inactive
42	SORT1 (sortilin 1)	no change	no change	-1.27	1.17	inactive
43	PODXL (podocalyxin like)	no change	no change	1.82	0.81	inactive
44	ZMYND10 (zinc finger MYND-type containing 10)	no change	no change	0.32	-0.88	inactive
45	SPATA6L (spermatogenesis associated 6 like)	no change	no change	0.06	0.02	inactive
46	HES3 (hes family bHLH transcription factor 3)	no change	no change	-0.2	1.51	inactive
47	SMN1 (survival of motor neuron 1, telomeric)	no change	no change	-1.4	-0.61	inactive
48	CD3E (CD3 epsilon subunit of T-cell receptor complex)	no change	no change	0.72	-1.17	inactive
49	CARD11 (caspase recruitment domain family member 11)	no change	no change	-0.22	-1.19	inactive
50	ZNF781 (zinc finger protein 781 (pseudogene))	no change	no change	0.22	-0.94	inactive
51	CTR9 (CTR9 component of Paf1/RNA polymerase II complex)	no change	no change	-0.45	0.15	inactive
52	DYNLT3 (dynein light chain Tctex-type 3)	no change	no change	-0.18	-0.82	inactive
53	KCNE3	no change	no change	0.45	1.8	inactive
54	FBXW7 (F-box and WD repeat domain containing 7)	no change	no change	0.64	0.18	inactive
55	SPESP1 (sperm equatorial segment protein 1)	no change	no change	1.1	0.04	inactive
56	CDY2B (chromodomain Y-linked 2B)	no change	no change	-2.58	2.23	inactive
57	NSUN3 (NOP2/Sun RNA methyltransferase 3)	no change	no change	-0.6	-0.6	inactive

Reformatted: 7 of the entries above.
| gene | viability hit class | caspase hit class | viability robust z-score | caspase robust z-score | call |
| --- | --- | --- | --- | --- | --- |
| H2BC4 (H2B clustered histone 4) | no change | no change | 0.16 | 0.2 | inactive |
| ATXN7 (ataxin 7) | no change | no change | -0.16 | 0.3 | inactive |
| CD101 (CD101 molecule) | no change | no change | 1.74 | 3.75 | inactive |
| TBX5 (T-box transcription factor 5) | no change | no change | 0.37 | -0.74 | inactive |
| FNDC8 (fibronectin type III domain containing 8) | no change | no change | -0.08 | 4.39 | inactive |
| PXT1 (peroxisomal testis enriched protein 1) | no change | no change | -0.11 | -0.12 | inactive |
| PRRG4 (proline rich and Gla domain 4) | no change | no change | 0.46 | 0.28 | inactive |
